Experimental findings from PubChem BioAssay AID2685 (National Center for Advancing Translational Sciences (NCATS), 2010) are described below.

Structures are written as SMILES. Some of the results follow. The main result of the screen is listed elsewhere. These columns were measured beside it and carry no call. Compounds called inactive in the main read-out are mostly missing here. Potencies come from curve fits of mixed quality, noted in brackets.

The assay in a line: qHTS Assay for Lipid Storage Modulators in Drosophila S3 Cells.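 On cell number change: cells counted by Cell Tracker Red CMTPX staining in the red channel.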 The conditions noted are these: BODIPY lipid droplet fluorescence, 18-24 h; for cell number change: measured here: cell count max response, cells fed with added oleic acid. The procedure, abridged:
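Drosophila S3 cells loaded with oleic acid (400 uM, as added) and compounds at several concentrations; lipid droplets imaged by 488-nm laser-scanning cytometry, 500–530 nm intensity and object ratio to cell channel. Percent activity normalized to 20 uM Triacsin C.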
Background: qHTS replaces the single test concentration by a dilution series.

The mark [1] stands for this setting: measured here: lipid fluorescence (Fed channel) AC50, cells fed with added oleic acid.
Setting [2] is: measured here: cell number channel AC50, cells fed with added oleic acid.

Usually AC50 stands for the concentration at which the activity in the assay is half-maximal. Higher therefore signals activity only at high concentration. `CCOC(=O)N1CCN(Cc2nc3c(c(=O)n(C)c(=O)n3C)n2Cc2ccccc2)CC1`: the AC50 under setting [1] is 29.1 µM [rising, single point].

Turning to `Cn1cc(S(=O)(=O)N2CCc3ccccc32)cc1C(=O)Nc1ccc(Cl)cc1`, the cell number change turned out to be 29.4%. As to `COc1ccc(C(C(=O)NC2CCCC2)N(C(=O)c2ccco2)c2cc3c(cc2C(C)=O)OCO3)cc1OC` (configuration not stated), the cell number change was -2.5%. Further, under setting [1], the AC50 was 18.4 µM [falling, partial curve, poor fit]. Turning to `O=C(NCC1CCCO1)c1cccc(Oc2ccc([N+](=O)[O-])cc2)c1` (configuration not stated), the cell number change was determined as 20.1%. For the same compound, the AC50 under setting [1] was 6.51 µM [rising, single point]. In the case of `COc1cccc(-c2c(C(=O)N/N=C/c3ccc(C)o3)nnn2-c2nonc2N)c1`, the cell number change is 23.3%. Further, under setting [1], the AC50 was 0.146 µM [rising, full curve, poor fit]. For `CSCC[C@H](NC(=O)OC(C)(C)C)C(=O)NCC1CCC(C(=O)N[C@@H](Cc2ccccc2)C(=O)O)CC1` (some centres not stated), under setting [1], the AC50 is 6.51 µM [falling, single point]. Turning to `CCc1ccc(NC(=O)C2CCN(c3c(N4CCCC4)c(=O)c3=O)CC2)cc1`, the cell number change turned out to be 11.3%. Regarding `COc1cccc(-n2cc(C(=O)O)c3ccccc3c2=O)c1`, the cell number change is -13.4%. Moreover, under setting [1], the AC50 was 25.9 µM [falling, partial curve, poor fit]. On to `Cc1ccc(S(=O)(=O)N2CCOCC2)cc1NC(=O)COC(=O)c1n[nH]c(=O)c2ccccc12`, for which the cell number change was found to be 94.7%. Also, the AC50 under setting [2] is 18.4 µM [rising, single point]. The AC50 under setting [1] is 29.1 µM [rising, partial curve].

Regarding `O=C(OCc1cc(Cl)ccc1OC(F)F)c1ccc([N+](=O)[O-])o1`, the cell number change is 10.1%. Regarding `O=C(CCCCCn1c(=S)[nH]c2ccccc2c1=O)N1CCOCC1`, the cell number change is -28.1%. Further, the AC50 under setting [1] is 29.1 µM [falling, single point]. Regarding `Cc1cccc(OCC(=O)N/N=C2/SCC(=O)N2Cc2ccco2)c1`, the cell number change was found to be 12.3%.

Turning to `CCc1ccc(CNC(=O)CCn2nc(C)c3c(C)n(-c4ccccc4)nc3c2=O)cc1`, the cell number change came out at 10.5%. For the same compound, the AC50 under setting [2] is 0.0651 µM [rising, full curve, poor fit]. Further, the AC50 under setting [1] is 1.46 µM [rising, full curve, poor fit]. `Cc1ccc(S(=O)(=O)/N=C(/Nc2c(C)n(C)n(-c3ccccc3)c2=O)c2ccccc2)cc1`: the AC50 reads like this: under setting [2], 2.31 µM [rising, partial curve]; under setting [1], 29.1 µM [rising, single point]. Take `O=C1NC(Cc2c[nH]c3ccccc23)C(=O)N1c1ccc(F)cc1` (configuration not stated): the cell number change worked out at 48.7%. For the same compound, the AC50 under setting [2] is 16.4 µM [rising, single point]. As to `COc1cccc(NC(=S)N(CCc2c(C)[nH]c3ccccc23)Cc2ccco2)c1`, the cell number change is 17.8%. The AC50 under setting [1] was 1.03 µM [rising, partial curve]. As to `Cc1nc([N+](=O)[O-])cn1CC(=O)c1ccccc1`, the cell number change is 9.65%. As to `COc1cccc(Nc2ncccc2C(=O)NCc2ccccc2)c1`, the AC50 under setting [2] is 6.51 µM [rising, single point] and the half-maximal activity concentration (AC50) under setting [1] is 6.51 µM [rising, single point]. In the case of `CS(=O)(=O)c1ccc(NC(=O)CN2C(=O)C3CCCCC3C2=O)cc1` (configuration not stated), the cell number change was -14.8%. Under setting [1], the AC50 is 29.1 µM [falling, single point].

Take `O=c1cc(Cl)[nH]c(=O)n1Cc1ccc(F)cc1`: the cell number change was -21.5%. As to `CC(=O)c1ccc(OCc2cc(C(=O)N(C)Cc3ncc(C)[nH]3)no2)cc1`, the cell number change was found to be 25.4%. As for `CC(C)CC(=O)NC(=S)NCc1ccccc1`, the cell number change worked out at 18.1%. In addition, the half-maximal activity concentration (AC50) under setting [1] is 5.17 µM [rising, partial curve, poor fit]. With `Cc1cc(C)cc(Oc2nc(C(F)(F)F)nc3ccccc23)c1`, the cell number change is -36.4%. In addition, under setting [2], the AC50 is 29.1 µM [falling, single point]. On to `COCCNC(=O)Nc1ccc2c(c1)N(C)C(=O)c1ccccc1S2`, for which the cell number change is -15.1%. The AC50 under setting [1] is 2.06 µM [rising, partial curve]. Consider `CCOC(=O)[C@@H]1[C@H]2COc3ccccc3[C@H]2N2C(=O)N(c3ccc(C(F)(F)F)cc3)C(=O)[C@]12C`, for which the AC50 under setting [1] was 4.11 µM [falling, full curve]. With `COc1ccc(CNC(=O)CSc2nnc3c(n2)[nH]c2ccc(F)cc23)cc1`, the cell number change is 23.5%. Regarding `COc1ccc(OC)c(-c2nnc(SCC(=O)N3CCCc4ccccc43)o2)c1`, the cell number change is -14.2%. As for `COc1cccc(C(=O)Nc2cccc(-c3nnc(-c4ccco4)o3)c2)c1`, the cell number change is 70.4%. Under setting [2], the AC50 is 5.17 µM [rising, full curve]. Further, the concentration at half-maximal activity (AC50) under setting [1] was 4.61 µM [falling, single point]. Consider `CCn1c(SCC(=O)Nc2oc(C)c3c(C)n[nH]c(=O)c23)nc2sc(C)c(C)c2c1=O`, for which the AC50 under setting [2] was 0.259 µM [rising, full curve]. In the case of `O=C(COC(=O)C1CC2C=CC1C2)Nc1cccc(S(=O)(=O)N2CCOCC2)c1` (configuration not stated), the cell number change is -19.7%. Also, the AC50 under setting [1] was 0.461 µM [falling, full curve, poor fit]. For the compound `CN(C)c1ccc(C=C2C(=O)OC(C)(C(C)(C)C)OC2=O)cc1` (configuration not stated), the cell number change was found to be 11.3%. The AC50 under setting [1] was 6.51 µM [falling, single point]. For `CCOC(=O)N1CCC(NC(=O)CCC(=O)N2CC(C)Oc3ccccc32)CC1` (configuration not stated), the cell number change stood at 7.99%. Besides, the AC50 under setting [1] is 10.3 µM [rising, single point]. Turning to `S=c1[nH]nc(-c2ccco2)n1/N=C/c1ccccc1`, the cell number change was -14.7%. Also, the AC50 under setting [1] is 29.1 µM [falling, single point]. For the compound `Cc1cccc(N2CCN(C(=O)c3ccc(Cl)c(S(=O)(=O)NCc4ccco4)c3)CC2)c1C`, the cell number change is -43.7%. In addition, under setting [2], the AC50 was 0.92 µM [falling, full curve]. For the same compound, under setting [1], the AC50 was 0.651 µM [falling, full curve]. `COc1cc(C(=O)N(Cc2ccc(N(C)C)cc2)C2CCS(=O)(=O)C2)cc(OC)c1OC` (configuration not stated): the cell number change is -8.64%. As to `Nn1c(COc2ccccc2)nnc1SC(F)F`, the cell number change is -9.79%. Further, the AC50 under setting [1] was 0.82 µM [falling, full curve]. On to `COc1cc(C(=O)OCC(=O)c2c[nH]c3ccccc23)ccc1OCC(=O)N1CCOCC1`, for which the cell number change is -19.4%. Further, under setting [1], the AC50 is 23.1 µM [rising, single point]. Consider `Cc1ccccc1S(=O)(=O)N1[C@@H](c2ccccc2)C(C(=O)O)=CC[C@H]1c1ccc(Cl)cc1`, for which the cell number change was -15.6%. Moreover, the AC50 under setting [2] is 1.46 µM [falling, partial curve]. Moreover, the AC50 under setting [1] is 29.1 µM [falling, single point].
